# Results of single-concentration screens

Results are given as percent effect.
The record does not define 0% and 100%; most values in the screen are far below 50% and negative numbers occur (in some assays of this library far below -100).
This is an unselected part of the compounds tested.

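Whole-parasite assay of Trypanosoma brucei over 72 hours; the read-out is not stated. Compounds at 30 µM. Higher reads as stronger inhibition (inferred: compounds with an IC50 in retests scored well above the rest). Values scatter widely below zero; nearly all retest evidence comes from the higher of the two concentrations used. Of about 64,000 compounds tested this way, about 940 (1.5%) reached 50% or more in at least one test.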

SMILES | effect
O=C(O)C(F)(F)F.O=C1N(CC2CC2)CCC12CCN(Cc1ccoc1)CC2 | -73.34
Cc1ccc(OCCN(C)Cc2nc3c(cnn3C)c(=O)[nH]2)cc1 | -7.298
CSc1nccc(-c2cccc(-c3ccn(CC4COCCO4)n3)c2)n1 (centres undefined) | -113.4
CCC(O)CN1CCN(C(=O)CCSC)CC1 (centres undefined) | -92.34
CC(=O)N1CC2(CCN(C(=O)CO)CC2)c2cc(C)ccc21 | -11.79
Cc1ccc(-n2cc(C(=O)NCC(C)Cn3cccn3)nn2)cc1 (centres undefined) | -24.74
CCn1ccnc1CNc1nccc(-c2c(C)nn(C)c2C)n1 | -39.91
CN1CC2(CCN(C(=O)c3ccc4nccnc4c3)CC2)CC1=O | 4.044
CN1CCN(C(=O)c2cc3sccc3n2Cc2ccccc2Cl)CC1 | 25.89
Cc1nnc2n1CCN(C(C(=O)N1CCCCC1)c1ccccc1)C2 (centres undefined) | -4.739
[H][C@@]12CCN(CC3CCOCC3)C[C@@]1([H])O[C@@H](C)C2 | -21.09
CC(C)NC(=O)c1cnc(Sc2nccn2C)c(Cl)c1 | -19.48
CCc1[nH]c2c(CNc3cncc(C(=O)N(C)C)n3)cc(C)cc2c1C | -3.809
COc1ccc(CN(C)CC(=O)c2ccc3[nH]c(=O)[nH]c3c2)cc1F | -1.637
Cc1nc(C)n(CCNC(=O)C2(C)CC(c3ccccc3)=NO2)n1 (centres undefined) | -3.668
CC(C)(C(N)=O)N1CCN(C(=O)c2ccn(-c3cccc(Cl)c3)n2)CC1 | 5.687
CC(C)(C)CN[C@@H]1CO[C@H](CNC(=O)c2cccs2)[C@H]1O | -11.18
CCc1nc(C(=O)N2CCOCC2CC(=O)c2ccccc2)c[nH]1 (centres undefined) | -23.77
CC(=O)c1ccc(C(=O)N(C)Cc2nc(-c3ccccn3)no2)s1 | -234.4
Cc1nn(C)c(C)c1NC(=O)CN1CCc2c(nc(C3CC3)n2C)C1 | -13.42
CC(C)N1CCN(C(=O)c2ccccc2NCc2cccnc2)CC1 | -16.13
CCOCC1CN(C(=O)Cc2ccccn2)Cc2c1cnn2C.O=C(O)C(F)(F)F.O=C(O)C(F)(F)F (centres undefined) | -19.58
CC(=O)N1CCN(CC(=O)N2CCN(c3cccc(C)c3)CC2)CC1 | -39.25
CC1CCN(c2ccc3c(-c4ncc(C(=O)O)s4)noc3c2)CC1 | -51.43
[H][C@]12CC[C@@]3(N=C(CC)N(CC)C3=O)[C@@]1([H])CN(S(=O)(=O)CC(C)C)C2 | -25.79
N#Cc1cccc(N2CC3(CCN(C(=O)NC4CC4)C3)CC2=O)c1 (centres undefined) | -16.28
Cc1cccc(N2CC3(CCN(Cc4nccn4C)C3)CC2=O)c1.O=C(O)C(F)(F)F (centres undefined) | -20.45
COc1ccccc1OCC(=O)Nc1ncccc1OC(F)F | -22.23
Cn1cc(CN2CCC3(CC2)CC(c2ccncc2)C(=O)N3)cn1.O=C(O)C(F)(F)F.O=C(O)C(F)(F)F (centres undefined) | -9.167
O=C(O)C(F)(F)F.[H][C@@]12CCN(C(=O)c3ccc[nH]3)C[C@]1([H])[C@@H](CN(C)C)OC2 | -5.802
Cc1cc(=O)n2nc(Oc3cc(Cl)cc(Cl)c3)sc2n1 | -23.2
Cc1ccc(-c2csc(N)c2C#N)c(C)c1 | -10.27
CCOC(=O)Cc1csc(NC(=O)c2ccc(=O)[nH]n2)n1 | 9.219
CS(=O)(=O)c1ccc(CNC(=O)N2CCC(C(N)=O)C2)cc1 (centres undefined) | -5.488
Cc1cc(C)c(CNC(=O)NCc2nnc3n2CCCC3)c(=O)[nH]1 | -17.56
CN1CCC(N(C)c2ccccc2CNCc2ccco2)CC1 | 47.43
Cc1cc(CNC(=O)CCCN2CCCCC2)n(C)n1 | -47.77
O=C(CC1CC1)N(Cc1cccnc1)CC1CCN(C2CCCC2)CC1 | 4.175
N[C@@H]1CC[C@@H](NC(=O)c2ccccc2OC(F)(F)C(F)F)C1 | -32.56
O=C(C1CC12CCC2)N1CCC(n2cc(-c3ccsc3)nn2)CC1 (centres undefined) | -15.56
O=C(O)C(F)(F)F.[H][C@@]12CN(Cc3ccoc3)CCO[C@]1([H])CN(S(=O)(=O)CCC)C2 | -115.4
CC(=O)c1c(C)cc(C)c(Cn2ccnc2S(C)(=O)=O)c1C | -27.86
CCc1nncn1CCNC(=O)N1CCCC(Cc2nccn2C)C1 (centres undefined) | -74.8
O=C(Cc1cccc(F)c1)N1CCc2ncnc(NC3CC3)c2CC1.O=C(O)C(F)(F)F | -65.72
COC(=O)C1CCN(C(=O)c2cc(Br)ccc2-n2cnnn2)CC1 | -52.11
O=C(O)C(F)(F)F.[H][C@@]12CCN(Cc3ccc4c(c3)OCO4)C[C@]1([H])O[C@H](C(=O)N(C)C)C2 | -20.56
COc1cccc(COCC(=O)NC(C(N)=O)c2ccccc2F)c1 (centres undefined) | -35.5
[H][C@@]12COC[C@]1(COCc1cccnc1)CN(C(=O)c1csc(C)n1)C2 | -56.83
O=C(O)C(F)(F)F.O=C(O)C(F)(F)F.[H][C@@]12CCCO[C@]1([H])[C@H](N(C)Cc1ccco1)CN(Cc1cccs1)C2 | 3.707
c1cc(-c2cnccn2)cc(-c2ccn(CCN3CCCC3)n2)c1 | 6.458
CCc1ncc(C(=O)N2CCCCC2Cn2cccn2)s1 (centres undefined) | -27.16
O=C(O)C(F)(F)F.[H][C@]12CCC[C@@H](CNc3cnccn3)[C@@]1([H])CN(Cc1cccnc1)C2 | -2.256
N#Cc1ccnc(N2CCC(NCCN3CCCC3)CC2)c1 | -47.64
COc1cccc(N2CCN(CCC(=O)NC3CCCC3)CC2)c1 | 19.09
CCN(C)Cc1n[nH]c(=O)n1-c1ccc(C)c(C)c1 | -19.57
Cc1noc(CNC(=O)CN(C)c2nc3c(C)ccc(C)c3s2)n1 | -12.74
COc1cccc(F)c1C(=O)N1C[C@@H](CN(C)CCO)[C@@H](CO)C1 | 44.1
CC(=O)N(Cc1ccsc1)c1ccccc1 | -4.727
CCc1nnc2n1CCN(C(C(=O)N(CC)CC)c1ccccc1)C2 (centres undefined) | -1.282
Cc1ccc(-c2nnc(CN3CCOCC(CO)C3)o2)n1C (centres undefined) | -29.8
Cn1ccc(C(=O)NC2CCC23CCN(C(=O)c2cnccn2)CC3)c1 (centres undefined) | 0.2024
Cc1nc(C(C)Nc2nc3c(s2)c(C)nn3C)n[nH]1 (centres undefined) | 2.885
CCCc1nc(C(=O)N2CCCn3nc(CCC(=O)O)cc3C2)cs1 | -4.593
OCCOc1cc(F)ccc1NCc1nc(-c2cccs2)no1 | -2.245
Cc1cc(=O)n(CC(=O)NCCC(C)C)c(-c2cccc(Cl)c2)n1 | 4.66
O=C(c1ccccc1)N1CCN(C2CCc3ccc(F)cc32)CC1 (centres undefined) | -31.4
O=C(O)C(F)(F)F.[H][C@@]12CCN(Cc3scnc3C)C[C@]1(c1nc(C)no1)CCO2 | 7.313
CCS(=O)(=O)c1ccccc1C(=O)NCC1Cc2ccccc2O1 (centres undefined) | -35.58

Once more, the final 6:

| SMILES | effect |
|---|---|
| `CCCc1nc(C(=O)N2CCCn3nc(CCC(=O)O)cc3C2)cs1` | -4.593 |
| `OCCOc1cc(F)ccc1NCc1nc(-c2cccs2)no1` | -2.245 |
| `Cc1cc(=O)n(CC(=O)NCCC(C)C)c(-c2cccc(Cl)c2)n1` | 4.66 |
| `O=C(c1ccccc1)N1CCN(C2CCc3ccc(F)cc32)CC1` (centres undefined) | -31.4 |
| `O=C(O)C(F)(F)F.[H][C@@]12CCN(Cc3scnc3C)C[C@]1(c1nc(C)no1)CCO2` | 7.313 |
| `CCS(=O)(=O)c1ccccc1C(=O)NCC1Cc2ccccc2O1` (centres undefined) | -35.58 |

Source: ChEMBL document CHEMBL3988442, “University of Dundee, Small-Polar-MMV Screening Library” (2021).